These results are taken from PubChem BioAssay AID248 (DTP/NCI, 2004).

For the test, the system named is L1210 leukemia ip in BDF1 mice, survival T/C. In words: NCI In Vivo Anticancer Drug Screen. Data for tumor model L1210 Leukemia (intraperitoneal) in B6D2F1 (BDF1) mice. The following applies: T/C endpoint: mean survival time, higher T/C = longer survival.
The mark [1] stands for this setting: dose: 300.0 mg/kg/injection, schedule: Q01DX001 (ip), vehicle: other.

Structures are written as SMILES. The list does not hold the whole screen: it gathers tests that were run many times, whatever their T/C, doses with no T/C, and many T/C values between a quarter and a half above the control. Other doses and runs of a compound stand elsewhere. T/C gives the treated animals as a percentage of the vehicle group. Some doses have a count of surviving animals in place of a T/C: the source files T/C as zero there, which appears to mark a toxic dose or a test without result, not a measured value. Some doses without a T/C left all or most animals alive at the check, yet need not have been tolerated: the source hardly ever lists a survival T/C far under the control, and the zero likely stands for such cases as well. Counts of survivors are from the toxicity check (mostly the fifth day) where no day follows; animals may have died later. Schedules are NCI's codes, taken here to give the interval after Q, in days (D) or hours (H), and the number of doses after X. Some entries hold several experiments; their values stand side by side, smallest first. Some schedule codes hold Z or #, which are not explained here. Where survival is the endpoint, the PubChem record calls one and a half times the control and up active, and a quarter to a half above the control has no call in these data; cut-offs in other NCI protocols can differ. Some T/C values carry the count of animals alive at the toxicity check (mostly the fifth day); without a count, all were alive then.

As to `COc1ccc(C(C#N)N2CCCC2)cc1` (configuration not stated), the survivor count is reported as 6 of 6 (dose: 25.0 mg/kg/injection, schedule: Q01DX009 (ip), vehicle: other); 0 of 6 (dose: 100.0 mg/kg/injection, schedule: Q04DX003 (ip), vehicle: other); 0 of 6 (dose: 200.0 mg/kg/injection, schedule: Q04DX003 (ip), vehicle: other); 0 of 6 (dose: 400.0 mg/kg/injection, schedule: Q04DX003 (ip), vehicle: other).

For `C[NH-].C[NH-].[Cl][Pt+2][Cl]`, the T/C is 130 and 130 % of control [9 of 10 alive] (dose: 0.62 mg/kg/injection, schedule: Q01DX009 (ip), vehicle: water); 131 and 134 % of control (dose: 1.25 mg/kg/injection, schedule: Q01DX009 (ip), vehicle: water); 129 % of control (dose: 2.5 mg/kg/injection, schedule: Q01DX009 (ip), vehicle: water); 134 % of control (dose: 3.12 mg/kg/injection, schedule: Q01DX009 (ip), vehicle: saline with Tween-80); 128 % of control (dose: 6.0 mg/kg/injection, schedule: Q01DX009 (ip), vehicle: saline with Tween-80); 141 % of control (dose: 6.25 mg/kg/injection, schedule: Q01DX009 (ip), vehicle: saline with Tween-80). The T/C (dose: 8.0 mg/kg/injection, schedule: Q04DX003 (ip), vehicle: saline with Tween-80) is 130 % of control; the T/C (dose: 12.0 mg/kg/injection, schedule: Q04DX003 (ip), vehicle: saline with Tween-80) was 132 % of control; the T/C (dose: 12.0 mg/kg/injection, schedule: Q04DX003 (ip), vehicle: water) was 137 % of control; the T/C (dose: 12.5 mg/kg/injection, schedule: Q01DX001 (ip), vehicle: water) was 129 % of control; the T/C (dose: 12.5 mg/kg/injection, schedule: Q04DX003 (ip), vehicle: saline with Tween-80) was 146 % of control; the T/C (dose: 18.0 mg/kg/injection, schedule: Q04DX003 (ip), vehicle: saline with Tween-80) was 132 and 148 % of control. Further, the survivor count was 6 of 6 (dose: 3.0 mg/kg/injection, schedule: Q03HX024 (ip), vehicle: water); 9 of 10 and 10 of 10 (dose: 5.0 mg/kg/injection, schedule: Q01DX009 (ip), vehicle: water); 1 of 6 (dose: 6.0 mg/kg/injection, schedule: Q03HX024 (ip), vehicle: water); 4 of 6 (dose: 6.25 mg/kg/injection, schedule: Q03HX008 (ip), vehicle: water); 0 of 6 (dose: 8.0 mg/kg/injection, schedule: Q01DX009 (ip), vehicle: other); 5 of 10 and 7 of 10 (dose: 10.0 mg/kg/injection, schedule: Q01DX009 (ip), vehicle: water). The survivor count runs as follows: (dose: 12.5 mg/kg/injection, schedule: Q03HX008 (ip), vehicle: water) 0 of 6; (dose: 24.0 mg/kg/injection, schedule: Q04DX003 (ip), vehicle: water) 5 of 6; (dose: 25.0 mg/kg/injection, schedule: Q01DX009 (ip), vehicle: saline with Tween-80) 5 of 6; (dose: 25.0 mg/kg/injection, schedule: Q04DX003 (ip), vehicle: saline with Tween-80) 6 of 6; (dose: 32.0 mg/kg/injection, schedule: Q01DX009 (ip), vehicle: other) 0 of 6; (dose: 48.0 mg/kg/injection, schedule: Q04DX003 (ip), vehicle: water) 0 of 6. Besides, the survivor count is listed as 0 of 6 (dose: 50.0 mg/kg/injection, schedule: Q01DX001 (ip), vehicle: water); 0 of 6 (dose: 50.0 mg/kg/injection, schedule: Q01DX009 (ip), vehicle: saline with Tween-80); 3 of 6 (dose: 64.0 mg/kg/injection, schedule: Q01DX001 (ip), vehicle: other); 1 of 6 (dose: 100.0 mg/kg/injection, schedule: Q01DX001 (ip), vehicle: water); 1 of 6 (dose: 100.0 mg/kg/injection, schedule: Q04DX003 (ip), vehicle: saline with Tween-80); 0 of 6 (dose: 200.0 mg/kg/injection, schedule: Q04DX003 (ip), vehicle: saline with Tween-80). In addition, the survivor count (dose: 400.0 mg/kg/injection, schedule: Q04DX003 (ip), vehicle: saline with Tween-80) is reported as 0 of 6.

As to `CC12COC(=O)CC1CCC1C2CCC2(C)C1CCC2(C)O` (configuration not stated), under “dose: 400.0 mg/kg/injection, schedule: Q01DX001 (ip), vehicle: saline”, the survivor count is on record as 3 of 6.

With `CCOc1ccc(NC(=S)NC(=O)c2ccco2)cc1`, for the setting “dose: 400.0 mg/kg/injection, schedule: Q01DX009 (ip), vehicle: saline with Tween-80”, the survivor count was 1 of 6.

In the case of `Cc1cccc(C)[n+]1CC(=O)CCCCCCC(=O)C[n+]1c(C)cccc1C`, the survivor count runs as follows: (dose: 50.0 mg/kg/injection, schedule: Q01DX001 (ip), vehicle: saline) 0 of 6; (dose: 100.0 mg/kg/injection, schedule: Q01DX001 (ip), vehicle: saline) 0 of 6; (dose: 200.0 mg/kg/injection, schedule: Q01DX001 (ip), vehicle: saline) 0 of 6.

With `CNCC1C=CCCC1` (configuration not stated), the survivor count (dose: 400.0 mg/kg/injection, schedule: Q04DX002 (ip), vehicle: saline) is given as 2 of 3.

As to `Cc1ccc(C(=NN=C(N)N)c2ccc(C)cc2)cc1`, the survivor count is, setting by setting: (dose: 30.0 mg/kg/injection, schedule: Q01DX Z (ip), vehicle: saline) 1 of 6; (dose: 60.0 mg/kg/injection, schedule: Q01DX Z (ip), vehicle: saline) 2 of 6; (dose: 120.0 mg/kg/injection, schedule: Q01DX Z (ip), vehicle: saline) 0 of 6.

In the case of `c1ccc2c(c1)ccc1c2ccc2sc3ccccc3[n+]21`, the survivor count (dose: 75.0 mg/kg/injection, schedule: Q01DX001 (ip), vehicle: other) was 0 of 6; the survivor count (dose: 150.0 mg/kg/injection, schedule: Q01DX001 (ip), vehicle: other) was 0 of 6; the survivor count under setting [1] is 0 of 6.

With `CC(C)C(=O)OC1(C(C)c2ccccc2)C(=O)NC(=O)NC1=O` (configuration not stated), the survivor count is listed as 0 of 3 (dose: 100.0 mg/kg/injection, schedule: Q04DX002 (ip), vehicle: saline with Tween-80); 0 of 3 (dose: 200.0 mg/kg/injection, schedule: Q04DX002 (ip), vehicle: saline with Tween-80); 0 of 3 (dose: 400.0 mg/kg/injection, schedule: Q04DX002 (ip), vehicle: saline with Tween-80).

Turning to `COC(C#N)C(O)(c1ccccc1)c1ccccc1` (configuration not stated), the survivor count under setting [1] is 3 of 6.

As for `O=NN(CCCl)C(=O)NC1CCC(Cl)CC1` (configuration not stated), the T/C (dose: 18.0 mg/kg/injection, schedule: Q01DX001 (ip), vehicle: Klucel (hydroxypropylcellulose) (HPC)) is 147 % of control. In addition, the survivor count runs as follows: (dose: 200.0 mg/kg/injection, schedule: Q01DX001 (ip), vehicle: Klucel (hydroxypropylcellulose) (HPC)) 10 of 10; (dose: 300.0 mg/kg/injection, schedule: Q01DX001 (ip), vehicle: Klucel (hydroxypropylcellulose) (HPC)) 4 of 10.

Turning to `O=C(Nc1cccc(F)c1)N(C1CCCCC1)C1CCCCC1`, the survivor count is 6 of 6 (dose: 25.0 mg/kg/injection, schedule: Q01DX009 (ip), vehicle: gum acacia); 6 of 6 (dose: 100.0 mg/kg/injection, schedule: Q01DX009 (ip), vehicle: gum acacia); 6 of 6 (dose: 200.0 mg/kg/injection, schedule: Q01DX009 (ip), vehicle: gum acacia).
